Experimental data reported in patent US20180230224A1 (KITE PHARMA, published 2018).
These are yes or no findings as the source states them, for the method shown. Some entries that bind do so weakly or less than the wild type. Where a sequence is shown, tags or fusion partners need not be part of it.

target: T1, recombinant CD70-Fc (Sino Biological) (UniProt P32970); assay: flow cytometry; CAR-transduced T cells stained with recombinant CD70-Fc, then goat anti-human IgG Fc PE
T1 sequence (looked up): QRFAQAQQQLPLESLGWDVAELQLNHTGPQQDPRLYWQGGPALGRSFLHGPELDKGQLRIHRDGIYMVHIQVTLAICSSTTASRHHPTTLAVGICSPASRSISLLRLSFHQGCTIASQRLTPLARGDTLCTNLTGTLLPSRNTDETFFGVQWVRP

Binder | binding
8G1.1_C28T_28z (other, also called CD70 CAR C3L; 28T-28z comprising an 8G1 scFv) QEQLVESGGGVVQPGRSLRLSCAASGFTFSSYGMHWVRQAPGKGLEWVAVTWYDGSNKYYGDSVKGRFTISRDNSKNTLYLQMNSLRAEDTAVYYCARDLLRGVKGYAMDVWGQGTTVTVSSGGGGSGGGGSGGGGSEIVLTQSPGTLSLSPGERATLSCRASQSLRRIYLAWYQQKPGQAPRLLIYDVFDRATGIPDRFSGGGSGTDFTLTISRLEPEDFAVYYCQQYSDSPFTFGPGTKVDIKRAAALDNEKSNGTIIHVKGKHLCPSPLFPGPSKPFWVLVVVGGVLACYSLLVTVAFIIFWVRSKRSRLLHSDYMNMTPRRPGPTRKHYQPYAPPRDFAAYRSRVKFSRSADAPAYQQGQNQLYNELNLGRREEYDVLDKRRGRDPEMGGKPRRKNPQEGLYNELQKDKMAEAYSEIGMKGERRRGKGHDGLYQGLSTATKDTYDALHMQALPPR | binds
6E9.1_C28T_4Bz (other, Chimeric antigen receptor on lentivirus-transduced human T cells; 6E9 scFv, CD28T hinge/TM, 4-1BB, CD3 zeta; also called 28T-4Bz comprising a 6E9 scFv) QVHLVQSGAEVKKPGASVRVSCKASGYTFTSYYLHWVRQAPGQGLEWMGIVDPSGGSTSYDQKFQGRFTMTRDTSTSTVYMELSSLRSEDTAVYYCARDYGDYVFDYWGQGTLVTVSSGGGGSGGGGSGGGGSQSVLTQPPSASGTPGQRVTISCSGSSSNIGTNTVNWYQQLPGTAPQLLIYINNQRPSGVPDRFSGSKSGTSASLAISGLQSEDEADYYCATWDDSLNGPVVGGGTKLTVLGAAALDNEKSNGTIIHVKGKHLCPSPLFPGPSKPFWVLVVVGGVLACYSLLVTVAFIIFWVRFSVVKRGRKKLLYIFKQPFMRPVQTTQEEDGCSCRFPEEEEGGCELRVKFSRSADAPAYQQGQNQLYNELNLGRREEYDVLDKRRGRDPEMGGKPRRKNPQEGLYNELQKDKMAEAYSEIGMKGERRRGKGHDGLYQGLSTATKDTYDALHMQALPPR | binds
8G1.1_C28T_4Bz (other, Chimeric antigen receptor on lentivirus-transduced human T cells; 8G1 scFv, CD28T hinge/TM, 4-1BB, CD3 zeta; also called 28T-4Bz comprising an 8G1 scFv) QEQLVESGGGVVQPGRSLRLSCAASGFTFSSYGMHWVRQAPGKGLEWVAVTWYDGSNKYYGDSVKGRFTISRDNSKNTLYLQMNSLRAEDTAVYYCARDLLRGVKGYAMDVWGQGTTVTVSSGGGGSGGGGSGGGGSEIVLTQSPGTLSLSPGERATLSCRASQSLRRIYLAWYQQKPGQAPRLLIYDVFDRATGIPDRFSGGGSGTDFTLTISRLEPEDFAVYYCQQYSDSPFTFGPGTKVDIKRAAALDNEKSNGTIIHVKGKHLCPSPLFPGPSKPFWVLVVVGGVLACYSLLVTVAFIIFWVRFSVVKRGRKKLLYIFKQPFMRPVQTTQEEDGCSCRFPEEEEGGCELRVKFSRSADAPAYQQGQNQLYNELNLGRREEYDVLDKRRGRDPEMGGKPRRKNPQEGLYNELQKDKMAEAYSEIGMKGERRRGKGHDGLYQGLSTATKDTYDALHMQALPPR | binds
1C8.1.001_C28T_28z (other, Chimeric antigen receptor on lentivirus-transduced human T cells; also called 28T-28z comprising a 1C8 scFv) QVQLQESGPGLVKPSQTLSLTCTVSGDSIISGGYYWSWIRQHPGKGLEWIGYIFYSGSTDYNPSLKSRVTISVDTSKNQFSLKLSSVTAADTAVYYCARSGYSYALFDHWGQGTLVTVSSGGGGSGGGGSGGGGSDIQMTQSPSSLSASVGDRVTISCRASQFIGRYFNWYQQQPGKAPKVLIYAESSLQSGVPSRFSGSGSGTEFTLTISSLQPEDFARYYCQQSYSTPFTFGQGTKVEIKRAAALDNEKSNGTIIHVKGKHLCPSPLFPGPSKPFWVLVVVGGVLACYSLLVTVAFIIFWVRSKRSRLLHSDYMNMTPRRPGPTRKHYQPYAPPRDFAAYRSRVKFSRSADAPAYQQGQNQLYNELNLGRREEYDVLDKRRGRDPEMGGKPRRKNPQEGLYNELQKDKMAEAYSEIGMKGERRRGKGHDGLYQGLSTATKDTYDALHMQALPPR | binds
6E9.1_C28T_28z (other, Chimeric antigen receptor on lentivirus-transduced human T cells; also called 28T-28z comprising a 6E9 scFv) QVHLVQSGAEVKKPGASVRVSCKASGYTFTSYYLHWVRQAPGQGLEWMGIVDPSGGSTSYDQKFQGRFTMTRDTSTSTVYMELSSLRSEDTAVYYCARDYGDYVFDYWGQGTLVTVSSGGGGSGGGGSGGGGSQSVLTQPPSASGTPGQRVTISCSGSSSNIGTNTVNWYQQLPGTAPQLLIYINNQRPSGVPDRFSGSKSGTSASLAISGLQSEDEADYYCATWDDSLNGPVVGGGTKLTVLGAAALDNEKSNGTIIHVKGKHLCPSPLFPGPSKPFWVLVVVGGVLACYSLLVTVAFIIFWVRSKRSRLLHSDYMNMTPRRPGPTRKHYQPYAPPRDFAAYRSRVKFSRSADAPAYQQGQNQLYNELNLGRREEYDVLDKRRGRDPEMGGKPRRKNPQEGLYNELQKDKMAEAYSEIGMKGERRRGKGHDGLYQGLSTATKDTYDALHMQALPPR | binds
